In patent EP2385124A2 one finds binding data, which are given here for seven molecules.

What all share (test): A/G plate assay (TABLE 2)
Assay [1] deals with T1, GST-RGS12 PDZ domain fusion protein (human) (UniProt O14924).
T1 sequence: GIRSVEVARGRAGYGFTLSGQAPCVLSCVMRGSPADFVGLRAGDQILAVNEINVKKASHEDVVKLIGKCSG

Assay [2] addresses T2, GST-MPP2 PDZ domain fusion protein (UniProt Q14168).
T2 sequence: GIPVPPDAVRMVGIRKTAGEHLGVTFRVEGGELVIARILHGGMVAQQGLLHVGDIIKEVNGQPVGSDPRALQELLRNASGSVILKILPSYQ

Assay [3] addresses T3, GST-AF6 PDZ domain fusion protein (UniProt P55196).
T3 sequence: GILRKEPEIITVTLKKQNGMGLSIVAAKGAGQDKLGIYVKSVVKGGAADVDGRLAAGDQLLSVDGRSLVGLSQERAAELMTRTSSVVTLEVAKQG

Assay [4] has as its target GST-PSD95 PDZ domains 1-3 fusion protein (human) (UniProt P78352).
Assay [5] addresses T4, GST-LIM PDZ domain fusion protein (human) (UniProt Q96HC4).
T4 sequence: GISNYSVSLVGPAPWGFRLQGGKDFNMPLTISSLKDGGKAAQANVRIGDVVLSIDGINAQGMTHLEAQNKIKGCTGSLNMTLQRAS

Assay [6] addresses T5, GST-DVL1 PDZ domain fusion protein (human) (UniProt O14640).
T5 sequence: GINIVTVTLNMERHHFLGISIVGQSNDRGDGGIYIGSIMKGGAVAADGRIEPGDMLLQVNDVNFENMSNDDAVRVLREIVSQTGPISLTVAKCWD

No constants are given. Whether binding was seen depends on the method and setting. Some results given as binding are weak or reduced against the parent protein; the word gives no strength. For some assays here: Tags and fused reporters may be left off the sequences shown.

B1: CDW125 (IL5R) C-terminal PL peptide AA28L (peptide)
peptide: EVICYIEKPGVETLEDSVF
modifications: biotin at the amino-terminus
For the molecule B1, the binding result in assay [1] is “binds”.

B2: Glycophorin C C-terminal PL peptide AA37L (peptide)
peptide: QGDPALQDAGDSSRKEYFI
modifications: biotin at the amino-terminus
B2: the binding entry in assay [2] is “binds”.

B3: Clasp-4 C-terminal PL peptide AA3L (peptide)
peptide: CAISGTSSDRGYGSPRYAEV
modifications: biotin at the amino-terminus
On to B3, for which the binding result in assay [3] and in assay [4] was “binds” in each case.

B4: CD98 C-terminal PL peptide AA15L (peptide)
peptide: ERLKLEPHEGLLLRFPYAA
modifications: biotin at the amino-terminus
As to B4, the binding result in assay [2] is “binds”.

B5: DNAM-1 C-terminal PL peptide AA22L (peptide)
peptide: TREDIYVNYPTFSRRPKTRV
modifications: biotin at the amino-terminus
Regarding B5, the binding result in assay [1], in assay [2] and in assay [5] was “binds” in each case.

B6: KV1.3 C-terminal PL peptide AA33L (peptide)
peptide: TTNNNPNSAVNIKKIFTDV
modifications: biotin at the amino-terminus
For B6, the binding result in assay [1] and in assay [6] was “binds” in each case.

B7: Clasp-1 C-terminal PL peptide AA1L (peptide)
peptide: ISKATPALPTVSISSSAEV
modifications: biotin at the amino-terminus
Consider B7, for which the binding result in assay [4] is recorded as “binds”.
